# Assay results as given in the supplement of paper PMC10849652.
# Amino acid sequences for entries named in this document (tags omitted). A change or cut given only in a name is not applied to a line headed by its entry.
# UniProt Q6YP21: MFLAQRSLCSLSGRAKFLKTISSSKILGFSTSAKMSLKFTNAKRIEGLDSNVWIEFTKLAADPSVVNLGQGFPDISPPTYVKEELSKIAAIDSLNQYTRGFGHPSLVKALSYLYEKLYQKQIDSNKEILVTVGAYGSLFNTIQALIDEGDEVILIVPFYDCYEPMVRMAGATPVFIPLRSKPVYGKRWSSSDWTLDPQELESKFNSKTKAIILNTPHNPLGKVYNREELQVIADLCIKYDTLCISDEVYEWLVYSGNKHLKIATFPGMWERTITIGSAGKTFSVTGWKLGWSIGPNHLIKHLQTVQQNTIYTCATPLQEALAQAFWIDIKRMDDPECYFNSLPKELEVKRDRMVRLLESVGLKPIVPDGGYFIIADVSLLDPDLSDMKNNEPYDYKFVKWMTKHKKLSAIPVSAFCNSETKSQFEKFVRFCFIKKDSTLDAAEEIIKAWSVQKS
# UniProt Q6IAA8, whole entry, looked up: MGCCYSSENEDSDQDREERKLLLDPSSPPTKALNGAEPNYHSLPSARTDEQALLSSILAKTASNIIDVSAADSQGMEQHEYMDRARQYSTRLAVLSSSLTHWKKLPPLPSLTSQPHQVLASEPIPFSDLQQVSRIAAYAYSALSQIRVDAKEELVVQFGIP
# UniProt Q9H008: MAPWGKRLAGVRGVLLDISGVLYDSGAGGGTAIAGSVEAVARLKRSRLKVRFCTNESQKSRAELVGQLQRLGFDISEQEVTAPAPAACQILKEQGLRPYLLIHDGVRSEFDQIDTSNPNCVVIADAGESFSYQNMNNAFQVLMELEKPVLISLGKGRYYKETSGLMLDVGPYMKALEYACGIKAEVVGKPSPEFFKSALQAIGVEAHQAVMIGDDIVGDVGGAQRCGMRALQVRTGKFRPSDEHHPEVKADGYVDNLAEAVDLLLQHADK
# UniProt P28838: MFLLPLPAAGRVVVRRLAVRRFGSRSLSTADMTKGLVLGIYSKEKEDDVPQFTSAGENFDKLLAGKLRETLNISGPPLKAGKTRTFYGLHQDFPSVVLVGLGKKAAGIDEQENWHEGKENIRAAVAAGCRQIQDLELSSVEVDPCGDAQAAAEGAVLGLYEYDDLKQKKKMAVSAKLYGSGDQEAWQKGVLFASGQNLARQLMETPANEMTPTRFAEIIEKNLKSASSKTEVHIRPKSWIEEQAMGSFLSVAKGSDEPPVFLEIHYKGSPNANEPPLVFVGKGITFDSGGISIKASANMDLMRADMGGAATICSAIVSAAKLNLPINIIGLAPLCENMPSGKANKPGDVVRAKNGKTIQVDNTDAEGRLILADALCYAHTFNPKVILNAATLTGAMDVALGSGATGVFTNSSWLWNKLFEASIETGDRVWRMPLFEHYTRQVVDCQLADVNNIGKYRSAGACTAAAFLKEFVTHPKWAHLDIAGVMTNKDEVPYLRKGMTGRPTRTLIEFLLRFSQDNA
# UniProt Q14847: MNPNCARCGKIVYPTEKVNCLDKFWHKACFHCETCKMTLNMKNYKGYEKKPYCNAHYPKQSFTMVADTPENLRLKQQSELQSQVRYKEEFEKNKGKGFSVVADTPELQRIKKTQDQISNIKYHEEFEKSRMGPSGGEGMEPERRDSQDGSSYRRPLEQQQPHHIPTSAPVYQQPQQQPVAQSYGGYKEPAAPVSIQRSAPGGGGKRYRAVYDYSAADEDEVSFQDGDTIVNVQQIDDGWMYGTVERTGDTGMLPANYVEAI
# UniProt Q8N1G4: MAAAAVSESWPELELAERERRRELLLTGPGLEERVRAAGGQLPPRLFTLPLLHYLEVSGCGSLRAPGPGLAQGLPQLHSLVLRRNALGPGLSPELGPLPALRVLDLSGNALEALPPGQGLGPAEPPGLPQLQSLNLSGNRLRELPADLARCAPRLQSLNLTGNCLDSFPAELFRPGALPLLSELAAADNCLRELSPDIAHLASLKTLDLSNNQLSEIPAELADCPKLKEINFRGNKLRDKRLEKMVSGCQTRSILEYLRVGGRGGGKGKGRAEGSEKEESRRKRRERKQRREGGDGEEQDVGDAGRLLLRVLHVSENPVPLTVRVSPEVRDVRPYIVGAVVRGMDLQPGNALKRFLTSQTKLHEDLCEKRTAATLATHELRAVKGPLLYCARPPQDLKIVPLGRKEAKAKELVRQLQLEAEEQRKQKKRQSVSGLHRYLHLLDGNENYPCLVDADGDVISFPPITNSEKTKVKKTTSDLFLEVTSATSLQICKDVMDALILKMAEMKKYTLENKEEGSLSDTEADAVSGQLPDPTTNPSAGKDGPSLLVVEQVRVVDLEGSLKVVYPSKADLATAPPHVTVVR
# UniProt Q96EM0: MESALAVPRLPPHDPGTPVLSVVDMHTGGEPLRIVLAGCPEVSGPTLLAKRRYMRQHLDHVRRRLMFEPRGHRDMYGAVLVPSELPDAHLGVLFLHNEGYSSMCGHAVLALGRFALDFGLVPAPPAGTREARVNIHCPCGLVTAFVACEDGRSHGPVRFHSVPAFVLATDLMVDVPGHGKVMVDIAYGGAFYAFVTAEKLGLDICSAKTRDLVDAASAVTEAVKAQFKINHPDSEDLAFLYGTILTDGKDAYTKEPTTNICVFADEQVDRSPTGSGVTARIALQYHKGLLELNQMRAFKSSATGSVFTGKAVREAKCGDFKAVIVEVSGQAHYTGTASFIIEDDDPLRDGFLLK
# UniProt Q8N9N7: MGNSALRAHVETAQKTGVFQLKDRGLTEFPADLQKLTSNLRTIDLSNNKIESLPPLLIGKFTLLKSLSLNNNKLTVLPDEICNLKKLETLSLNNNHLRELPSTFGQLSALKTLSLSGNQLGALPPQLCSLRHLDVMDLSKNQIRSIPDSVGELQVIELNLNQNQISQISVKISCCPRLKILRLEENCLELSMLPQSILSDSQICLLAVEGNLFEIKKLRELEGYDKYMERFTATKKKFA
# UniProt Q15031: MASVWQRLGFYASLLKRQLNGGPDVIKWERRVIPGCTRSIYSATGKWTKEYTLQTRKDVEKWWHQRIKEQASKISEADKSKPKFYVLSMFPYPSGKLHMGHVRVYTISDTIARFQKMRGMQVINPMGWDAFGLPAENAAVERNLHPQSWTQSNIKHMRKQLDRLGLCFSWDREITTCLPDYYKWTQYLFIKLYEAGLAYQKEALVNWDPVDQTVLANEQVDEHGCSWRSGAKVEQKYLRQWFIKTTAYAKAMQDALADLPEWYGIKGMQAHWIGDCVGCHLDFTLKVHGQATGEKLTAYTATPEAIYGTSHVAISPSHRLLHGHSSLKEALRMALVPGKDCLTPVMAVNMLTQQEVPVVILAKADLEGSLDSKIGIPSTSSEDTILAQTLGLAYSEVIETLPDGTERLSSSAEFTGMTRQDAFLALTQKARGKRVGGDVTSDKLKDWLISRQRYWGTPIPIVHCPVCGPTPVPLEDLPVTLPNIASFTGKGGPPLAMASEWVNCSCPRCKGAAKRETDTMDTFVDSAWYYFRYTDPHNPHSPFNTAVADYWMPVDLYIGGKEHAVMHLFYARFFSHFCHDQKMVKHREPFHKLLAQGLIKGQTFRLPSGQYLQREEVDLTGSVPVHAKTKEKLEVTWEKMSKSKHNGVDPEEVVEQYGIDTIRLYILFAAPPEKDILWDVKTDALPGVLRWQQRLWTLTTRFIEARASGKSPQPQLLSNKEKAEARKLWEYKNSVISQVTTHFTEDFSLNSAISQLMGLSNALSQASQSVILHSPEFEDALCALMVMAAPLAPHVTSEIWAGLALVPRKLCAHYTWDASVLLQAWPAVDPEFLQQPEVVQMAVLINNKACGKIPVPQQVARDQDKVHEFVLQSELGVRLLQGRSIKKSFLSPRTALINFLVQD
# UniProt Q9BRT6: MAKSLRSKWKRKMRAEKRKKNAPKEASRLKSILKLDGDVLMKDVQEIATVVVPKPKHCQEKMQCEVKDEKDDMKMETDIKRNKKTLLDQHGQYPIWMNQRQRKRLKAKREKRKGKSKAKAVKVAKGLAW
# UniProt Q96BZ8: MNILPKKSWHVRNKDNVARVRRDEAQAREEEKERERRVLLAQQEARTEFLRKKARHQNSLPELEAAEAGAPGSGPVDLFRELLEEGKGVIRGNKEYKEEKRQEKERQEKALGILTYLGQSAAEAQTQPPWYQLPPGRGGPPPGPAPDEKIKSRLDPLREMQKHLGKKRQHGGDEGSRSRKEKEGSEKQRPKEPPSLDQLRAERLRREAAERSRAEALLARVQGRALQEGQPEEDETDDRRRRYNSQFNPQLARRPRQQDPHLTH
# UniProt P18858, whole entry, looked up: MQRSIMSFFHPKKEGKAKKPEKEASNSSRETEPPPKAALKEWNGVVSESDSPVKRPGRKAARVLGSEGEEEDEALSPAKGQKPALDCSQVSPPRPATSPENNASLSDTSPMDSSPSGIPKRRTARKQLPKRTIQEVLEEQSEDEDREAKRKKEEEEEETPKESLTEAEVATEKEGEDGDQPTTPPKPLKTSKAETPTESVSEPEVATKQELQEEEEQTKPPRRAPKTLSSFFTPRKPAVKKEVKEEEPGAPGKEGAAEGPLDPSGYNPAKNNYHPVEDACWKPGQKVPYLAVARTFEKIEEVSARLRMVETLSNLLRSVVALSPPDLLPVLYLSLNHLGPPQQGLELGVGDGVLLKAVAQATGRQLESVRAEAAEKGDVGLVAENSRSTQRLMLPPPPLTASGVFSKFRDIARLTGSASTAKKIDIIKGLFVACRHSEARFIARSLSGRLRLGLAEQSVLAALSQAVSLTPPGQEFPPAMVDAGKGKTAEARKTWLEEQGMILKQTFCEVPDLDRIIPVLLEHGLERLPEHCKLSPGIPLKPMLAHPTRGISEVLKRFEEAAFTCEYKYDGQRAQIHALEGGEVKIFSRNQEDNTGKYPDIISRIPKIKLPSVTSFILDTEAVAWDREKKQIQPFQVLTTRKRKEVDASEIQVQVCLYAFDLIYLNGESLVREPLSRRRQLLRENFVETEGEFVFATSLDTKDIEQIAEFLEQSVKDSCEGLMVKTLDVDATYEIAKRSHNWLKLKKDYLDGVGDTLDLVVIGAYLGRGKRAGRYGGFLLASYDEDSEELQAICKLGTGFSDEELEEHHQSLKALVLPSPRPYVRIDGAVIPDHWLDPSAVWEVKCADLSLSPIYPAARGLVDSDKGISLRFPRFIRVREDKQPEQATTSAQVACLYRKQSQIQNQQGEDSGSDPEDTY
# UniProt O95202: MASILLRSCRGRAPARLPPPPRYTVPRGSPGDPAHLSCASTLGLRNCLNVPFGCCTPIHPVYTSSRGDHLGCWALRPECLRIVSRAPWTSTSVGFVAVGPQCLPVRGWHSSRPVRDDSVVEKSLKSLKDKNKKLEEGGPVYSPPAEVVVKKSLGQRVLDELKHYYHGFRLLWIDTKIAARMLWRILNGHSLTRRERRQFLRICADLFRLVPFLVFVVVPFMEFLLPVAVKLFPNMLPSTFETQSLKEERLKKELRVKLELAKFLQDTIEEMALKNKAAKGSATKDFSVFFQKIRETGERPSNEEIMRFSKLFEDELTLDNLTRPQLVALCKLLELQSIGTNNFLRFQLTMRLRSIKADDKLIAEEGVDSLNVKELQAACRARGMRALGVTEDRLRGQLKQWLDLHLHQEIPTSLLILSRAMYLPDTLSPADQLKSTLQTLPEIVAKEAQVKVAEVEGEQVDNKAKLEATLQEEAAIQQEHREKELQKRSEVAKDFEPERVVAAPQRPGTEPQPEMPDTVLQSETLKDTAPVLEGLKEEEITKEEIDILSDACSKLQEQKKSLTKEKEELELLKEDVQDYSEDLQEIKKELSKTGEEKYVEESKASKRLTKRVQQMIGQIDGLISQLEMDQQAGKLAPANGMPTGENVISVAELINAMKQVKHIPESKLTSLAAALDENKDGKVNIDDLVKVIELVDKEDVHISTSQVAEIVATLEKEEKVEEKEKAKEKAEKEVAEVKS
# UniProt P07195, whole entry, looked up: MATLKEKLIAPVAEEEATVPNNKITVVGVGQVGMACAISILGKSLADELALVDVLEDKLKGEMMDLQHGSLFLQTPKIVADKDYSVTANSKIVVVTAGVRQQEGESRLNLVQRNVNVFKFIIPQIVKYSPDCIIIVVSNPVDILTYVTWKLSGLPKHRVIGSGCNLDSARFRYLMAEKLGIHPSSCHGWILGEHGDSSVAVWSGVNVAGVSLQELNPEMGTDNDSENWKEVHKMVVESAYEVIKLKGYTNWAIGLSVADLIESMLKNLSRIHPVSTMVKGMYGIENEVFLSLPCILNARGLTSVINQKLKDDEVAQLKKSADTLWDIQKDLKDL
# UniProt Q9H0V9: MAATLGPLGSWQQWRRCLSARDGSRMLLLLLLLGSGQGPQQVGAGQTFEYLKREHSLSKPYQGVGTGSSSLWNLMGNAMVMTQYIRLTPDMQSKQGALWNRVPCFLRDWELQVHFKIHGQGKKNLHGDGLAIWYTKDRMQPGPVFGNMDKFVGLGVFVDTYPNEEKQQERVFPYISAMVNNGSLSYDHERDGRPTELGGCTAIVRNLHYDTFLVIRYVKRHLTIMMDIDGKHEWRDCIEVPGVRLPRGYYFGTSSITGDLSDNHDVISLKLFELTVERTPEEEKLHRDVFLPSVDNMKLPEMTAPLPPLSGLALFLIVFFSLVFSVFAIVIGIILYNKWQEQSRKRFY
# The other results are listed elsewhere or left out.
# Compound: CNCc1ccc(-c2[nH]c3cc(F)cc4c3c2CCNC4=O)cc1 [rucaparib]
# Assay: log2 fold change, soluble protein after heating vs DMSO (PISA); higher = thermal stabilisation; K562 cells, 10 uM, 30 min; active = over 0.2 and 3.5 SD of the protein, either way, in both replicates (recomputed)
# How it was run: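 Quantification of soluble protein used TMTpro 16plex LC-MS/MS, with channel sums equalised. Samples were the supernatant after 21,000xg for 90 min of pooled aliquots from K562 cells (2×10^6 cells/mL) treated with 10 μM compound for 30 min, heated for 3 min over 48°C-58°C, and extracted in PBS with 0.5% NP-40 at 4°C. Values, from duplicates, describe thermal stability against control samples on a log2 fold-change scale.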
row,Target,log2 fold change
1,LARS (UniProt Q9P2J5),inactive: 0.364
2,KYAT3 (UniProt Q6YP21),inactive: -0.049
3,LAMTOR1 (UniProt Q6IAA8),inactive: -0.033
4,LHPP (UniProt Q9H008),inactive: -0.067
5,LAP3 (UniProt P28838),inactive: -0.045
6,LANCL1 (UniProt O43813),inactive: 0.015
7,LASP1 (UniProt Q14847),inactive: -0.014
8,LRRC47 (UniProt Q8N1G4),inactive: -0.072
9,L3HYPDH (UniProt Q96EM0),inactive: -0.059
10,LRRC57 (UniProt Q8N9N7),inactive: -0.035
11,LIMS1 isoform 3 (UniProt P48059),inactive: -0.083
12,LARS2 (UniProt Q15031),inactive: -0.022
13,LLPH (UniProt Q9BRT6),inactive: 0.412
14,LACTB2 (UniProt Q53H82),inactive: -0.028
15,LCMT1 (UniProt Q9UIC8),inactive: -0.055
16,LDB1 (UniProt Q86U70),inactive: 0.008
17,LENG1 (UniProt Q96BZ8),inactive: 0.007
18,LIG1 (UniProt P18858),inactive: -0.015
19,LETM1 (UniProt O95202),inactive: -0.049
20,LDHB (UniProt P07195),inactive: -0.008
21,LMAN2L isoform 2 (UniProt Q9H0V9),inactive: 0.059
22,LPCAT1 (UniProt Q8NF37),inactive: -0.024
23,LRRC20 (UniProt Q8TCA0),inactive: 0.019

# Rewritten bar-delimited: part of the list above.
row | Target | log2 fold change
7 | LASP1 (UniProt Q14847) | inactive: -0.014
8 | LRRC47 (UniProt Q8N1G4) | inactive: -0.072
